The supplement of paper PMC10331698
± gives the standard deviation of the averaged measurements. Most entries show no effect beyond the scatter of the controls.

What was measured:
Experiment in all cases: level (log10 ratio to DMSO vehicle control); higher = higher biomarker level / cell amount than vehicle control
[1] = compound: O=C(O)C(F)(F)C(F)(F)C(=O)O [Tetrafluorosuccinic acid]; conditions: 2200 nM; in DMSO
Procedure: (§1)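 BioMAP Diversity Plus panel of 12 human primary cell co-culture systems (3C, 4H, LPS, SAg, BT, BF4T, BE3C, CASM3C, HDF3CGF, KF3CT, MyoF, Mphg). Compounds were added 1 h before stimulation and left for 24 h (MyoF 48 h; BT 72 h for soluble read-outs or 6 d for IgG). Biomarkers were read by ELISA, cytotoxicity by SRB, PBMC viability and proliferation by Alamar Blue. Each well value was divided by the mean of 8 DMSO control wells on the same plate and log10 transformed; duplicate blinded samples were tested at 4 concentrations.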

[2] = compound: O=C(O)CCC(F)(F)C(F)(F)C(F)(F)C(F)(F)C(F)(F)F [2H,2H,3H,3H-Perfluorooctanoic acid]; conditions: 2200 nM; in DMSO
Procedure: as §1

[3] = compound: O=S(=O)(O)C(F)(F)C(F)(F)OC(F)(F)C(F)(F)F [Perfluoro(2-ethoxyethane)sulfonic acid]; conditions: 2200 nM; in DMSO
Procedure: as §1

[4] = compound: NS(=O)(=O)C(F)(F)C(F)(F)C(F)(F)C(F)(F)C(F)(F)C(F)(F)F [Perfluorohexanesulfonamide]; conditions: 2200 nM; in DMSO
Procedure: as §1

[5] = compound: COC(=O)CCC(F)(F)C(F)(F)C(F)(F)C(F)(F)F [Methyl 2H,2H,3H,3H-perfluoroheptanoate]; conditions: 2200 nM; in DMSO
Procedure: as §1

[6] = compound: NC(=O)C(F)(F)C(F)(F)C(F)(F)C(F)(F)F [Nonafluoropentanamide]; conditions: 2200 nM; in DMSO
Procedure: as §1

[7] = compound: C=C(C)C(=O)OCCC(F)(F)C(F)(F)C(F)(F)C(F)(F)C(F)(C(F)(F)F)C(F)(F)F [(Perfluoro-5-methylhexyl)ethyl 2-methylprop-2-enoate]; conditions: in DMSO
Procedure: as §1

[8] = compound: O=S(=O)(O)CCC(F)(F)C(F)(F)C(F)(F)C(F)(F)C(F)(F)C(F)(F)F [6:2 Fluorotelomer sulfonic acid]; conditions: in DMSO
Procedure: as §1

[9] = compound: FC(F)(F)C(F)(F)C(F)(F)C(F)(F)C(F)(F)CCI [1-Iodo-1H,1H,2H,2H-perfluoroheptane]; conditions: 2200 nM; in DMSO
Procedure: as §1

[10] = compound: O=C(O)C(F)(F)C(F)(F)C(F)(F)C(F)(F)C(F)(F)C(F)(F)C(F)(F)C(F)(F)Cl [9-Chloro-perfluorononanoic acid]; conditions: in DMSO
Procedure: as §1

[11] = compound: OC(C(F)(F)F)(C(F)(F)F)C(O)(C(F)(F)F)C(F)(F)F [Perfluoropinacol]; conditions: in DMSO
Procedure: as §1

[12] = compound: OCCC(F)(F)C(F)(F)C(F)(F)C(F)(F)F [4:2 Fluorotelomer alcohol]; conditions: 2200 nM; in DMSO
Procedure: as §1

[13] = compound: NC(=O)C(F)(F)C(F)(F)C(F)(F)C(F)(F)C(N)=O [Octafluoroadipamide]; conditions: 2200 nM; in DMSO
Procedure: as §1

[14] = compound: C=C(C)C(=O)OCCC(F)(F)C(F)(F)C(F)(F)C(F)(F)C(F)(F)C(F)(F)C(F)(F)C(F)(F)F [8:2 Fluorotelomer methacrylate]; conditions: in DMSO
Procedure: as §1

Test System | level (log10) [1] | level (log10) [2] | level (log10) [3] | level (log10) [4] | level (log10) [5] | level (log10) [6] | level (log10) ([7]; 740 nM) | level (log10) ([7]; 2200 nM) | level (log10) ([7]; 6700 nM) | level (log10) ([7]; 20000 nM) | level (log10) ([8]; 2200 nM) | level (log10) ([8]; 6700 nM) | level (log10) ([8]; 20000 nM) | level (log10) ([8]; 60000 nM) | level (log10) [9] | level (log10) ([10]; 2200 nM) | level (log10) ([10]; 6700 nM) | level (log10) ([10]; 20000 nM) | level (log10) ([11]; 2200 nM) | level (log10) ([11]; 6700 nM) | level (log10) ([11]; 20000 nM) | level (log10) [12] | level (log10) [13] | level (log10) ([14]; 740 nM) | level (log10) ([14]; 2200 nM)
4H:CCL26/Eotaxin-3 | -0.0145 ± 0.0021 | 0.025 ± 0.023 | 0.0425 ± 0.013 | 0.0045 ± 0.0064 | -0.0215 ± 0.012 | -0.012 ± 0.035 | 0.02 ± 0.073 | 0.018 ± 0.033 | 0.042 ± 0.058 | 0.039 ± 0.02 | 0.0355 ± 0.0064 | 0.017 ± 0.0014 | -0.0285 ± 0.023 | -0.095 ± 0.018 | -0.0055 ± 0.0064 | -0.006 ± 0.025 | -0.04 ± 0.011 | 0.016 ± 0.037 | 0.0005 ± 0.033 | -0.03 ± 0.048 | -0.179 ± 0.037 | -0.0085 ± 0.0064 | 0.0645 ± 0.042 | -0.0165 ± 0.043 | -0.022 ± 0.023
3C:Proliferation | -0.025 ± 0.034 | -0.0405 ± 0.0078 | -0.0145 ± 0.019 | -0.0255 ± 0.039 | -0.0575 ± 0.03 | -0.0155 ± 0.029 | -0.0305 ± 0.063 | 0.006 ± 0.0028 | 0.004 ± 0.052 | -0.0305 ± 0.0021 | -0.0005 ± 0.026 | 0.0055 ± 0.0021 | 0.012 ± 0.027 | 0.0305 ± 0.039 | -0.003 ± 0.044 | 0.013 ± 0.051 | 0.016 ± 0.079 | 0.019 ± 0.041 | -0.0155 ± 0.0064 | -0.151 ± 0.0028 | -0.441 ± 0.086 | -0.0465 ± 0.046 | -0.0175 ± 0.013 | 0.0175 ± 0.047 | 0.003 ± 0.057
BE3C:CXCL8/IL-8 | 0.0455 ± 0.074 | 0.0105 ± 0.037 | 0.0135 ± 0.026 | -0.0135 ± 0.005 | 0.0435 ± 0.005 | 0.0235 ± 0.025 | 0.0255 ± 0.047 | 0.012 ± 0.041 | -0.0065 ± 0.0092 | -0.008 ± 0.024 | 0.009 ± 0.027 | 0.021 ± 0.031 | -0.001 ± 0.021 | 0 ± 0.021 | 0.024 ± 0.065 | 0.0125 ± 0.061 | 0.0025 ± 0.025 | -0.102 ± 0.049 | 0.0165 ± 0.0078 | -0.049 ± 0.0014 | -0.203 ± 0.021 | -0.0115 ± 0.035 | -0.0315 ± 0.039 | -0.005 ± 0.04 | -0.006 ± 0.038
MyoF:PAI-I | 0.021 ± 0.0071 | 0.0015 ± 0.0092 | 0.003 ± 0.0071 | -0.0045 ± 0.0078 | 0.005 ± 0.0085 | -0.0015 ± 0.012 | 0 ± 0.0099 | -0.011 ± 0.0057 | -0.0025 ± 0.011 | -0.019 ± 0.0085 | 0.0035 ± 0.0064 | -0.0035 ± 0.0021 | -0.011 ± 0.0014 | -0.0035 ± 0.015 | -0.01 ± 0.0071 | -0.001 ± 0.0085 | -0.0065 ± 0.0078 | -0.0185 ± 0.011 | -0.0005 ± 0.0021 | -0.0215 ± 0.012 | -0.0025 ± 0.00071 | 0.0065 ± 0.012 | -0.003 ± 0.027 | 0.006 ± 0.018 | 0.0065 ± 0.011
